According to patent publication US10064926B2, “Peptides and combination of peptides for use in immunotherapy against hepatocellular carcinoma (HCC) and other cancers” (Immatics biotechnologies GmbH, priority 2014, dated 2018):

Tested on: tumor samples of other tumor types
Assay: Over-presentation of peptides on additional tumor types versus normal tissues (LC-MS)
Parameters: species or system human
Details: over-presentation on more than 5% of the measured tumor samples, or presentation on more than 5% with ratio of geometric means tumor vs normal tissues larger than 3

Substance	Additional Entities (additional tumor types on which the peptide was found over-presented)	Other relevant organs/diseases (additional tumor types on which the peptide was found over-presented)
35 (SLQESILAQV; listed as Homo sapiens) [compound 35]	NSCLC, SCLC, PrC, MCC, Melanoma, Urinary bladder cancer, AML	
36: peptide found in ACLY (gene looked up) (ILNVDGLIGV; listed as Homo sapiens) [compound 36]	NSCLC, SCLC, PrC, Melanoma, OC, Urinary bladder cancer, Uterine Cancer, Gallbladder Cancer, Bile Duct Cancer, NHL, PC	Kidney, Brain, Colon, Rectum
37 (LLLPLLPPLSP; listed as Homo sapiens) [compound 37]	SCLC, PC, MCC, Uterine Cancer, Gallbladder Cancer, Bile Duct Cancer	
45 (ALQDQLVLV; listed as Homo sapiens) [compound 45]	SCLC, Brain Cancer	
64 (KILEETLYV; listed as Homo sapiens) [compound 64]	Esophageal Cancer, Urinary bladder cancer, Uterine Cancer	
65 (KLFSGDELLEV; listed as Homo sapiens) [compound 65]		Brain, Colon, Rectum
69 (KLLDEVTYLEA; listed as Homo sapiens) [compound 69]	Urinary bladder cancer	Colon, Rectum
78 (LLIDDEYKV; listed as Homo sapiens) [compound 78]	Esophageal Cancer, Urinary bladder cancer, PC	
80 (LLYEGKLTL; listed as Homo sapiens) [compound 80]		Colon, Rectum
90 (RLLDVLAPLV; listed as Homo sapiens) [compound 90]	BRCA	Kidney
95 (SICNGVPMV; listed as Homo sapiens) [compound 95]	Urinary bladder cancer	
112 (VLGEVKVGV; listed as Homo sapiens) [compound 112]		Kidney
115 (VVLDDKDYFL; listed as Homo sapiens) [compound 115]	CLL	
125 (ALYGRLEVV; listed as Homo sapiens) [compound 125]	BRCA, MCC, Melanoma, OC, Urinary bladder cancer, Uterine Cancer	Brain, Colon, Rectum
136 (ALLNQHYQV; listed as Homo sapiens) [compound 136]	BRCA, OC	
138 (ALSQVTLLL; listed as Homo sapiens) [compound 138]		Kidney
145 (FLIAEYFEHV; listed as Homo sapiens) [compound 145]	SCLC	
150 (GLSNLGIKSI; listed as Homo sapiens) [compound 150]	Urinary bladder cancer, NHL	
152 (KLDNNLDSV; listed as Homo sapiens) [compound 152]	BRCA, Melanoma	
157 (QLLPNLRAV; listed as Homo sapiens) [compound 157]	RCC	
166 (SILDIVTKV; listed as Homo sapiens) [compound 166]	SCLC, CLL, MCC, Melanoma, Urinary bladder cancer, AML	Brain
178 (YIFTTPKSV; listed as Homo sapiens) [compound 178]	AML	
199 (KFVTVQATF; listed as Homo sapiens) [compound 199]		Brain
207 (IYLERFPIF; listed as Homo sapiens) [compound 207]	NSCLC, GC	

Substance	Additional Entities (additional tumor types on which the peptide was found over-presented)	Other relevant organs/diseases (additional tumor types on which the peptide was found over-presented)
209 (VFHPRQELI; listed as Homo sapiens) [compound 209]	NSCLC	
216 (IYADVGEEF; listed as Homo sapiens) [compound 216]	NSCLC, GC, PrC	
222 (LTDITKGV; listed as Homo sapiens) [compound 222]	BRCA, NHL	
223 (FLFNTENKLLL; listed as Homo sapiens) [compound 223]	Melanoma, Urinary bladder cancer, NHL	Colon, Rectum
232 (KLAEIVKQV; listed as Homo sapiens) [compound 232]	NSCLC, SCLC, BRCA, Melanoma, OC, Urinary bladder cancer	Colon, Rectum
235 (KLFEEIREI; listed as Homo sapiens) [compound 235]	NSCLC, CRC, Melanoma, Urinary bladder cancer	
247 (KLLDTMVDTFL; listed as Homo sapiens) [compound 247]	NSCLC, SCLC, RCC, Brain Cancer, CLL, BRCA, OC, Esophageal Cancer, Urinary bladder cancer, Uterine Cancer, AML, NHL	Colon, Rectum
262 (VLPNFLPYNV; listed as Homo sapiens) [compound 262]	NSCLC, SCLC, Brain Cancer, GC, BRCA, MCC, Melanoma, Esophageal Cancer, Urinary bladder cancer, Uterine Cancer, Gallbladder Cancer, Bile Duct Cancer, NHL, PC	
280 (ATLNIIHSV; listed as Homo sapiens) [compound 280]	Urinary bladder cancer	
285 (KLLDLSDSTSV; listed as Homo sapiens) [compound 285]	SCLC, Uterine Cancer	Kidney, Colon, Rectum
287 (LIGEFLEKV; listed as Homo sapiens) [compound 287]	SCLC, RCC, Melanoma, OC, Esophageal Cancer, Urinary bladder cancer, NHL	CLL
291 (QLIDYERQL; listed as Homo sapiens) [compound 291]		Kidney, Colon, Rectum, Pancreas
294 (RLIDLHTNV; listed as Homo sapiens) [compound 294]	Esophageal Cancer	
296 (SLLSGRISTL; listed as Homo sapiens) [compound 296]	BRCA, Urinary bladder cancer	Kidney
300 (TLAQQPTAV; listed as Homo sapiens) [compound 300]	Urinary bladder cancer, Uterine Cancer, Gallbladder Cancer, Bile Duct Cancer, NHL	Pancreas
306 (KLVEFDFLGA; listed as Homo sapiens) [compound 306]		Brain, Colon, Rectum
321 (GVIAEILRGV; listed as Homo sapiens) [compound 321]		Kidney, Brain
325 (RLSEAIVTV; listed as Homo sapiens) [compound 325]		Brain, Pancreas
331 (SLLAQNTSWLL; listed as Homo sapiens) [compound 331]	NSCLC, RCC, GC, BRCA, Melanoma, Esophageal Cancer, Urinary bladder cancer	Brain, Colon, Rectum, Pancreas
333 (GLAEDIDKGEV; listed as Homo sapiens) [compound 333]		Kidney, Brain
339 (RLISKFDTV; listed as Homo sapiens) [compound 339]		Brain
341 (YLAIGIHEL; listed as Homo sapiens) [compound 341]	SCLC	
344 (VYISSLALL; listed as Homo sapiens) [compound 344]	NSCLC, GC, CRC	Brain

Tested on: primary HCC tissue samples
Assay: Identification and label-free LC-MS relative quantitation of HLA-presented peptides (presentation profiles/scores), HCC versus normal tissues
Parameters: species or system human; key to PeptidePresentation (presentation score): very highly over-presented on tumors compared to a panel of normal tissues (+++); highly over-presented on tumors compared to a panel of normal tissues (++); over-presented on tumors compared to a panel of normal tissues (+)
Details: FIG. 1 presentation profiles

Substance	over-presentation in HCC compared with normal tissues
2 (KLQAGTVFV; listed as Homo sapiens) [compound 2]	over-presentation

Same assay, conditions: HCC tumors compared to a panel of normal tissues

Substance	PeptidePresentation (presentation score)
2 (KLQAGTVFV; listed as Homo sapiens) [compound 2]	+++
11 (SLSQELVGV; listed as Homo sapiens) [compound 11]	+
12 (FLAELAYDL; listed as Homo sapiens) [compound 12]	+++
33 (LLHGHIVEL; listed as Homo sapiens) [compound 33]	+
40 (ALLAEGITWV; listed as Homo sapiens) [compound 40]	+
44 (ALQDAIRQL; listed as Homo sapiens) [compound 44]	+
